Experimental data as given in paper doi:10.1101/2025.06.23.660276.
Results are given in words; binding and its absence hold for the method and conditions named. Binding seen in cells or lysates may run through a third protein. These calls come from enrichment with a bait or labelling near it, and not all partners need be listed. For some of these results: No binding means not detected with the bait.

The chains behind the UniProt entries cited, without tags or fusion partners.
UniProt A0A1D8PSS1: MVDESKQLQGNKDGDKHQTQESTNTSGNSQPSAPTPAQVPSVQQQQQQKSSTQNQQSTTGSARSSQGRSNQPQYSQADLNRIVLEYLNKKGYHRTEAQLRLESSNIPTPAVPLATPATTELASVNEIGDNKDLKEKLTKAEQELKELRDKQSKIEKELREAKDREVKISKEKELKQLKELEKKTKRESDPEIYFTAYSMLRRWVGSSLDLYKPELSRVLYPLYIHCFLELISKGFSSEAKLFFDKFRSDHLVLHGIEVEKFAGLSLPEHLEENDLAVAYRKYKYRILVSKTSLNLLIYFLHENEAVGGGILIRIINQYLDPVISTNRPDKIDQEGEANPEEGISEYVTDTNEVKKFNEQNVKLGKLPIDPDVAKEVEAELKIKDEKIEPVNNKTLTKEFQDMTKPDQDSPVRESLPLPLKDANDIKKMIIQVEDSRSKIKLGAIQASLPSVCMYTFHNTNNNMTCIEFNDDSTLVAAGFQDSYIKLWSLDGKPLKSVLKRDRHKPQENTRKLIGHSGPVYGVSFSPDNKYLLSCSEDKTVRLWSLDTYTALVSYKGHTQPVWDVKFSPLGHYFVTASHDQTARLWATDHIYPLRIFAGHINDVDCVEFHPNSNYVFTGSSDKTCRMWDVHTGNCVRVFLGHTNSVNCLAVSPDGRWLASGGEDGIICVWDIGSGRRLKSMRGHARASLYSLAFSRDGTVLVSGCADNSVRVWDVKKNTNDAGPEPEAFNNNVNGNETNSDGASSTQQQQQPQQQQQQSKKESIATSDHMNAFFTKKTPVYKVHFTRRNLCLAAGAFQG
UniProt A0A1D8PNT2: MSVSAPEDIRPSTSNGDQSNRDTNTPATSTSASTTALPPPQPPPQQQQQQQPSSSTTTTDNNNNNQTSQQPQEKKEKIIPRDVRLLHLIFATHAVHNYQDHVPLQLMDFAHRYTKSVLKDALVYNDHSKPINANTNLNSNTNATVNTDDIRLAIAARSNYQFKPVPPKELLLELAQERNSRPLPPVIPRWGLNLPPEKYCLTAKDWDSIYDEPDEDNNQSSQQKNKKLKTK
UniProt A0A1D8PSN1: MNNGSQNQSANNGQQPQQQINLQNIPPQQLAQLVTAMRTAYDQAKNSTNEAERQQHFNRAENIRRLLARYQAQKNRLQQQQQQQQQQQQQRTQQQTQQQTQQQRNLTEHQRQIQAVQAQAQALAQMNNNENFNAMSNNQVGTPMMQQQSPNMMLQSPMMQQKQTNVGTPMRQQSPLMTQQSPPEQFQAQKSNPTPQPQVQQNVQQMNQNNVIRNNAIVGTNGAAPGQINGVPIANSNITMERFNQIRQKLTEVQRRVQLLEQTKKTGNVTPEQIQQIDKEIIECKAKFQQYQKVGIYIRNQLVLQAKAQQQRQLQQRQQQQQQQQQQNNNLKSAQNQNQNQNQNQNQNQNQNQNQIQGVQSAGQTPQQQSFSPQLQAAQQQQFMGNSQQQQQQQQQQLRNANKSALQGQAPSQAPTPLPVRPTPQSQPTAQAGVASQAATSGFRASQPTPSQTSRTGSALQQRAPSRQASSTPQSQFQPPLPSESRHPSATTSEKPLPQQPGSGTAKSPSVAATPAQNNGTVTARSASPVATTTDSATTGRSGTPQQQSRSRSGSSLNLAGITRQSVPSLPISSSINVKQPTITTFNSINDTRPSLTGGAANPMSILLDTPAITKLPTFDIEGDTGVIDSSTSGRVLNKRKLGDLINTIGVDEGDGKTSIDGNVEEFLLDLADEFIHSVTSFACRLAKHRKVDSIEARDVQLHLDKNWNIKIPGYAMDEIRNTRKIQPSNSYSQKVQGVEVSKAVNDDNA

Key:
[1] = target: 3xFLAG-tagged TAF12L (C. albicans); assay: affinity purification with mass spectrometry; anti-FLAG M2 affinity agarose on cell lysate in H350 buffer (25mM HEPES-KOH pH 7.5, 350mM KCl), 4°C, eluted with 3xFLAG peptide; MudPIT; untagged SN87 as control
TAF11-TAP (C. albicans) = target: T1, TAF11-TAP (C. albicans) (UniProt Q59SU6); assay: affinity purification with mass spectrometry; two-step TAP purification: IgG-Sepharose in TAP extraction buffer (350mM NaCl), TEV cleavage, calmodulin-Sepharose, EGTA elution; MudPIT; untagged SN87 as control
T1 sequence: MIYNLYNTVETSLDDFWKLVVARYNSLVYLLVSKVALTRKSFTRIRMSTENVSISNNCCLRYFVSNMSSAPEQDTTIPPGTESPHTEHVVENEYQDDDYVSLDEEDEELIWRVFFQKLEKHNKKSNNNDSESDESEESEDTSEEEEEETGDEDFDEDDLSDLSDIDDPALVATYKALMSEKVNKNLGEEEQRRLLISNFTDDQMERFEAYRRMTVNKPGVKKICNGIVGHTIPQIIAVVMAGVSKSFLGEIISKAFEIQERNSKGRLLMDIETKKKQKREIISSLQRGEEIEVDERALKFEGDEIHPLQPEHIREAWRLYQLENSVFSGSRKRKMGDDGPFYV

TBP-TAP (C. albicans) = target: T2, TBP-TAP (C. albicans) (UniProt O43133); assay: as above
T2 sequence: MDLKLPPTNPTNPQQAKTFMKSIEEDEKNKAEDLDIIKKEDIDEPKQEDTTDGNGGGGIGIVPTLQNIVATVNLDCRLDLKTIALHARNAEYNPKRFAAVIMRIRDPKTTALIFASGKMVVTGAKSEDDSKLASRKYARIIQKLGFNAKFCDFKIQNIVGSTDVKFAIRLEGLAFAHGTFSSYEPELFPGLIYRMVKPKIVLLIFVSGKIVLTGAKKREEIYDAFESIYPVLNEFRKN

Substance: TAF5 (from UniProt A0A1D8PSS1 1-798)
- binding [1]: binds

Substance: TAF9 (from UniProt A0A1D8PNT2 1-231)
- binding [1]: binds

Substance: TAF12L (from UniProt A0A1D8PSN1 1-750)
- binding (TAF11-TAP (C. albicans)): no binding
- binding (TBP-TAP (C. albicans)): no binding
